Test results from paper PMC1904229.
These are yes or no findings as the source states them, for the method shown. Binding seen in cells or lysates may run through a third protein. Binding can be weak; no strength is given. Blank lines part the entries; values can stand above or below the binder they belong to.

How the values were obtained:
Recombinant GST-Zfra = experiment: pull-down; glutathione-Sepharose 4B beads coated with GST or GST-Zfra; SK-N-SH cells untreated, treated with TNF (50 ng/ml; 10 or 40 min) or exposed to UV light (120 mJoule/cm^2, then 1 hr in culture); Western blotting; only the target purified
[1] = target: Endogenous Zfra (SK-N-SH cells) (human (endogenous in SK-N-SH)); experiment: co-IP; immunoprecipitation with specific antibodies against Zfra; endogenous proteins of SK-N-SH cells, with or without UV light (120 mJoule/cm^2)

binding (Recombinant GST-Zfra): binds
B1: Endogenous Tyr33-phosphorylated WOX1 (SK-N-SH cells) (protein, UniProt Q9NZC7 1-414)
chain: MAALRYAGLDDTDSEDELPPGWEERTTKDGWVYYANHTEEKTQWEHPKTGKRKRVAGDLPYGWEQETDENGQVFFVDHINKRTTYLDPRLAFTVDDNPTKPTTRQRYDGSTTAMEILQGRDFTGKVVVVTGANSGIGFETAKSFALHGAHVILACRNMARASEAVSRILEEWHKAKVEAMTLDLALLRSVQHFAEAFKAKNVPLHVLVCNAATFALPWSLTKDGLETTFQVNHLGHFYLVQLLQDVLCRSAPARVIVVSSESHRFTDINDSLGKLDFSRLSPTKNDYWAMLAYNRSKLCNILFSNELHRRLSPRGVTSNAVHPGNMMYSNIHRSWWVYTLLFTLARPFTKSMQQGAATTVYCAAVPELEGLGGMYFNNCCRCMPSPEAQSEETARTLWALSERLIQERLGSQSG
modifications: phosphotyrosine at 33

binding [1]: binds
binding (Recombinant GST-Zfra): binds
B2: Endogenous WOX1 (SK-N-SH cells) (protein, UniProt Q9NZC7 1-414)
chain: B1 chain
